From patent EP1728864A1 (dated 2006)
Results are given in words; binding and its absence hold for the method and conditions named. Some results given as binding are weak or reduced against the parent protein; the word gives no strength.

Chains of the proteins cited; added tags and fusions are not shown. Residues count along the entry.
UniProt P29965, residues 47-261: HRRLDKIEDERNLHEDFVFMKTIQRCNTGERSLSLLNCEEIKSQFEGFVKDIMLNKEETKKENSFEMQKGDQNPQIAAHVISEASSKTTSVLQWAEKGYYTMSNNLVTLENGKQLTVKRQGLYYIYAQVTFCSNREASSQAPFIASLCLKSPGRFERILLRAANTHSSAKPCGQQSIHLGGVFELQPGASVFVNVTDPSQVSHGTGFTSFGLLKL

Biological target: human gp39 coated on Biacore chips (human) (UniProt P29965)
Test: Biacore, gp39 on chip

B1: 106 sFv-Ig (scFv)
scFv: DIQMTQSPASLSASVGETVTITCRASETIYSYLAWYQQKQGRSPQLLVYNAKTLAEGVPSRFSGSGSGTQFSLKINSLQPEDFGSYYCQHHYNTPLTFGTGTKLELKRGGGGSGGGGSGGGGSEVKLVESGGGLVKPGGSLKLSCTTSGFTFNNYAMSWVRQTPEKRLEWVASISSGDSTYYFDSVRGRFTISRDNARNILYLQMSSLRSEDTAMYYCARHYDYDSYAMDYWGQGTSVTVS
notes: VL-linker-VH-human Ig, monomeric; L6 V kappa leader used for secretion; not shown: hinge-CH2-CH3 of human IgG1
binding: binds
